The structures appear in SMILES notation. The list does not hold the whole screen: it gathers tests that were run many times, whatever their T/C, doses with no T/C, and many T/C values between a quarter and a half above the control. Other doses and runs of a compound stand elsewhere. T/C gives the treated animals as a percentage of the vehicle group. Some doses have a count of surviving animals in place of a T/C: the source files T/C as zero there, which appears to mark a toxic dose or a test without result, not a measured value. Some doses without a T/C left all or most animals alive at the check, yet need not have been tolerated: the source hardly ever lists a survival T/C far under the control, and the zero likely stands for such cases as well. Survivors were counted at the toxicity check, usually on the fifth day, unless a day is given; later deaths do not show. Schedule codes are those of the source, taken here to give the interval after Q, in days (D) or hours (H), and the number of doses after X. Some schedule codes hold Z or #, which are not explained here. Some molecules as drawn cover several salts, stereoisomers or complexes of the source; a dose is that of the sample tested. Where survival is the endpoint, this PubChem deposit counts one and a half times the control or more as active, and values a quarter to a half above the control carry no call in these data; other NCI protocols may use other cut-offs. Some doses were run more than once; the values are given in rising order.

In this experiment the test system is L1210 leukemia ip in BDF1 mice, survival T/C. Put plainly: NCI In Vivo Anticancer Drug Screen. Data for tumor model L1210 Leukemia (intraperitoneal) in B6D2F1 (BDF1) mice. Conditions: T/C endpoint: mean survival time, higher T/C = longer survival.
[1] abbreviates: dose: 100.0 mg/kg/injection, schedule: Q04DX003 (ip), vehicle: saline.
Setting [2] is: dose: 400.0 mg/kg/injection, schedule: Q04DX003 (ip), vehicle: saline with Tween-80.
Where [3] appears, read: dose: 100.0 mg/kg/injection, schedule: Q01DX009 (ip), vehicle: saline.
[4] abbreviates: dose: 200.0 mg/kg/injection, schedule: Q01DX009 (ip), vehicle: saline.
[5] abbreviates: dose: 400.0 mg/kg/injection, schedule: Q01DX009 (ip), vehicle: saline.
Setting [6] is: dose: 60.0 mg/kg/injection, schedule: Q01DX Z (ip), vehicle: saline.
[7] abbreviates: dose: 120.0 mg/kg/injection, schedule: Q01DX Z (ip), vehicle: saline.
Where [8] appears, read: dose: 100.0 mg/kg/injection, schedule: Q04DX003 (ip), vehicle: Klucel (hydroxypropylcellulose) (HPC).
[9] abbreviates: dose: 200.0 mg/kg/injection, schedule: Q04DX003 (ip), vehicle: Klucel (hydroxypropylcellulose) (HPC).
[10] abbreviates: dose: 400.0 mg/kg/injection, schedule: Q04DX003 (ip), vehicle: Klucel (hydroxypropylcellulose) (HPC).
Setting [11] is: dose: 400.0 mg/kg/injection, schedule: Q01DX009 (ip), vehicle: Klucel (hydroxypropylcellulose) (HPC).
Where [12] appears, read: dose: 200.0 mg/kg/injection, schedule: Q01DX001 (ip), vehicle: saline.
Setting [13] is: dose: 400.0 mg/kg/injection, schedule: Q01DX001 (ip), vehicle: saline.
Where [14] appears, read: dose: 100.0 mg/kg/injection, schedule: Q01DX001 (ip), vehicle: saline.

Take `CCCCCCCCCCCCCCCC[n+]1ccccc1`: the survivor count is recorded as 0 of 6 (dose: 6.25 mg/kg/injection, schedule: Q01DX009 (ip), vehicle: saline); 0 of 6 (dose: 12.5 mg/kg/injection, schedule: Q01DX009 (ip), vehicle: saline); 0 of 6 (dose: 25.0 mg/kg/injection, schedule: Q01DX009 (ip), vehicle: saline); 0 of 6 (dose: 25.0 mg/kg/injection, schedule: Q01DX Z (ip), vehicle: water); 0 of 6 (dose: 50.0 mg/kg/injection, schedule: Q01DX Z (ip), vehicle: water); 0 of 6 (dose: 100.0 mg/kg/injection, schedule: Q01DX Z (ip), vehicle: water). For the same compound, the survivor count (dose: 200.0 mg/kg/injection, schedule: Q01DX Z (ip), vehicle: water) is 0 of 6.

With `C[n+]1cccc(O)c1`, the T/C under setting [1] was 128 % of control.

Take `CCCCOCN1CCCCC1`: under setting [2], the survivor count is recorded as 0 of 6.

For `CC(CCN1CCOCC1)(CN=C(N)N)c1cccc2ccccc12` (stereo unspecified), the survivor count by setting is: (dose: 50.0 mg/kg/injection, schedule: Q04DX002 (ip), vehicle: saline) 3 of 3; under setting [3], 3 of 6; (dose: 100.0 mg/kg/injection, schedule: Q04DX002 (ip), vehicle: saline) 0 of 3; under setting [4], 0 of 6; under setting [5], 0 of 6.

As for `C[N-]C.C[N-]C.[Cl][Pt+2][Cl]`, the survivor count under setting [5] is 1 of 6.

For the compound `O=C(Nc1ccc(C2=NCCN2)cc1)Nc1cc(C(=O)Nc2ccc(C3=NCCN3)cc2)ccc1C(=O)Nc1ccc(C2=NCCN2)cc1`, the survivor count is, setting by setting: (dose: 30.0 mg/kg/injection, schedule: Q01DX Z (ip), vehicle: saline) 0 of 6; under setting [6], 0 of 6; under setting [7], 0 of 6; (dose: 150.0 mg/kg/injection, schedule: Q01DX Z (oral), vehicle: saline) 3 of 6.

In the case of `O=C1C(Cl)=C(Br)C(=O)C1(Br)Br`, the survivor count by setting is: under setting [8], 6 of 6; under setting [9], 0 of 6; under setting [10], 0 of 6.

With `CC(C)(C)N1CC(C(O)c2ccccc2)C1c1ccccc1` (stereo unspecified), the survivor count under setting [10] is 3 of 6.

Take `ClC1=C(Cl)C(Cl)(Cl)C(Cl)(Cl)C1(Cl)Cl`: the survivor count (dose: 200.0 mg/kg/injection, schedule: Q01DX009 (ip), vehicle: Klucel (hydroxypropylcellulose) (HPC)) is listed as 2 of 6 and the survivor count under setting [11] is listed as 0 of 6.

For `Cc1cc2nnc(C)n2c2ccccc12`, the survivor count runs as follows: under setting [12], 0 of 4; under setting [13], 0 of 4.

As to `CC(CN(C)C)CN1c2ccccc2CCc2ccccc21` (stereo unspecified), the survivor count is, setting by setting: (dose: 70.0 mg/kg/injection, schedule: Q01DX009 (ip), vehicle: saline) 1 of 6; (dose: 140.0 mg/kg/injection, schedule: Q04DX003 (ip), vehicle: saline) 1 of 4; (dose: 280.0 mg/kg/injection, schedule: Q04DX003 (ip), vehicle: saline) 0 of 4.

As for `CC(C)CP(=O)(CC(C)C)C1CCCCC1`, under setting [2], the survivor count was 2 of 6.

With `C/C(CCc1ccccc1)=N/N(C)C`, the survivor count under setting [5] is listed as 2 of 6.

As to `COC(=O)c1ccc(NCC(C)(C)N)cc1`, the survivor count reads like this: under setting [14], 0 of 6; under setting [1], 3 of 6; under setting [12], 0 of 6; (dose: 200.0 mg/kg/injection, schedule: Q04DX003 (ip), vehicle: saline) 0 of 6; under setting [13], 0 of 6; (dose: 400.0 mg/kg/injection, schedule: Q04DX003 (ip), vehicle: saline) 0 of 6.

As for `CCNC(=O)c1ccc(NC(=O)Nc2ccc(C3=NCCN3)cc2)cc1NC(=O)Nc1ccc(C2=NCCN2)cc1`, the T/C is 147 % of control (dose: 25.0 mg/kg/injection, schedule: Q01DX015 (ip), vehicle: water); 130 and 133 % of control (dose: 46.0 mg/kg/injection, schedule: Q01DX001 (ip), vehicle: water); 145 % of control (dose: 93.0 mg/kg/injection, schedule: Q01DX001 (ip), vehicle: water). Besides, the survivor count is given as 0 of 6 (dose: 125.0 mg/kg/injection, schedule: Q01DX Z (ip), vehicle: water); 0 of 6 (dose: 250.0 mg/kg/injection, schedule: Q01DX Z (ip), vehicle: water); 0 of 6 (dose: 500.0 mg/kg/injection, schedule: Q01DX Z (ip), vehicle: water).

As for `O=C(O)CSCc1ccccc1`, the survivor count (dose: 200.0 mg/kg/injection, schedule: Q01DX009 (ip), vehicle: saline with Tween-80) is on record as 5 of 6 and the survivor count (dose: 400.0 mg/kg/injection, schedule: Q01DX009 (ip), vehicle: saline with Tween-80) was 5 of 6.

In the case of `COc1cccc(/C=C(/SC)S(C)=O)c1OC` (stereo unspecified), the survivor count runs as follows: under setting [3], 0 of 6; under setting [4], 0 of 6; under setting [5], 4 of 6.

`Cc1c(Cl)cccc1NC(=O)Oc1ccc(F)cc1Cl`: the survivor count under setting [11] is reported as 0 of 6.

As for `O=C(Oc1c(Cl)c(Cl)c(Cl)c(Cl)c1Cl)c1cc(Cl)cc(Cl)c1Br`, the survivor count was 0 of 6 (dose: 200.0 mg/kg/injection, schedule: Q04DX003 (ip), vehicle: saline with Tween-80) and 0 of 6 under setting [2].

Consider `CCCCCCCCCCCCCCCCCOc1ccc(Sc2ccc([N+](=O)[O-])cc2)cc1`, for which the survivor count was 6 of 6 under setting [8] and 6 of 6 under setting [10].

Take `CN(C1CCCCC1)C1CCCCC1`: the survivor count is, setting by setting: (dose: 50.0 mg/kg/injection, schedule: Q01DX009 (ip), vehicle: Klucel (hydroxypropylcellulose) (HPC)) 0 of 6; (dose: 100.0 mg/kg/injection, schedule: Q01DX009 (ip), vehicle: Klucel (hydroxypropylcellulose) (HPC)) 0 of 6; under setting [8], 0 of 6; under setting [9], 0 of 6; (dose: 300.0 mg/kg/injection, schedule: Q01DX001 (ip), vehicle: saline) 1 of 6; under setting [10], 0 of 6.

Regarding `Nc1cc(OCc2ccccc2)cc(OCc2ccccc2)c1`, the survivor count is on record as 0 of 6 (dose: 200.0 mg/kg/injection, schedule: Q01DX009 (ip), vehicle: water) and 0 of 6 (dose: 400.0 mg/kg/injection, schedule: Q01DX009 (ip), vehicle: water).

As to `[B-][NH2+]CC[NH2+][B-]`, the survivor count runs as follows: under setting [14], 3 of 4; under setting [12], 2 of 4.

For the compound `N#Cc1cn(-c2ccc(Cl)cc2)c2ncccc12`, the survivor count under setting [14] was 3 of 3; the survivor count (dose: 200.0 mg/kg/injection, schedule: Q01DX001 (ip), vehicle: saline with Tween-80) is listed as 3 of 3; the survivor count (dose: 400.0 mg/kg/injection, schedule: Q01DX001 (ip), vehicle: saline with Tween-80) is recorded as 3 of 3.

As to `NC(N)=N/N=C/c1cccc(F)c1`, the survivor count is 0 of 6 under setting [6]; 2 of 6 (dose: 60.0 mg/kg/injection, schedule: Q01DX Z (oral), vehicle: saline); 0 of 6 under setting [7]; 0 of 6 (dose: 120.0 mg/kg/injection, schedule: Q01DX Z (oral), vehicle: saline).
